Laboratory results from patent US9161906B2, “Pharmaceutical formulations based on apolar and polar lipids for ophthalmic use” (SIFI, S.P.A., priority 2007, dated 2015).

System: experimental uveitis in rabbits
Details: inhibition of PGE2 accumulation in the aqueous humour

C[C@@H]1C[C@H]2[C@@H]3CCC4=CC(=O)C=C[C@]4(C)[C@@]3(F)[C@@H](O)C[C@]2(C)[C@@]1(O)C(=O)COP(=O)(O)O [dexamethasone sodium phosphate] was tested, and the “concentrations exerting significant anti-inflammatory effects” value was ≥ 0.001%.
